In all, about 300,000 compounds went through this assay and about 5,400 (1.8%) were called active. The shares of active, inactive and inconclusive entries below differ from those in the screen. Calls follow the shape of the full dose curve; tested in HEK293 cells. Potencies beside an inconclusive call are fits to weak or partial responses and may not hold up.
Assay: qHTS for inhibitors of binding or entry into cells for Marburg Virus
Settings: Marburg virus pseudotyped entry inhibition, cell reporter; activity change, negative = inhibition: at 37.8 µM (top of the series) unless noted
In the case of `CCCCN(C(=O)c1cc2c(s1)CCC2)c1c(N)n(CCC)c(=O)[nH]c1=O`, the Potency is reported as inconclusive: 3.98 µM [activator, single point]. For `COC(=O)c1ccccc1N/C=C1\CCc2c(c(C)nn2-c2ccccn2)C1=O`, the Potency was inconclusive: 35.5 µM [inhibitor, single point]. In the case of `CC(C)CCNc1nc(-c2ccco2)c2c(c1C#N)CCCC2`, the “activity change, negative = inhibition” value is reported as inactive: -12.3%. For `O=C(NC1CCCCC1)c1ccc(S(=O)(=O)N2CCCCC2)cc1`, the “activity change, negative = inhibition” value was inactive: 3.37%. With `O=C(CC(=O)NC1CCCCC1)N/N=C/c1ccc(Cl)cc1` the “activity change, negative = inhibition” value was inactive: 12.5%. In the case of `COc1ccc(N(CC(=O)NCCSCc2ccco2)S(=O)(=O)c2ccccc2)cc1`, the Potency is reported as inconclusive: 17.8 µM [inhibitor, single point]. With `CN1CC=C2C(C#N)=C(N)C(C#N)(C#N)C(CCc3ccccc3)C2C1` (stereo not given) the Potency was inconclusive: 16.4 µM [inhibitor, single point]. For `CCn1c(CCCOc2ccc(Cl)cc2Cl)nnc1SCC(=O)Nc1cc(F)ccc1C`, the Potency was inconclusive: 12.6 µM [inhibitor, single point]. For `O=C(Nc1ccccc1C(F)(F)F)N1CCN(c2ccc3nnc(-c4ccc(F)cc4)n3n2)CC1`, the Potency was inconclusive: 15.8 µM [inhibitor, single point]. With `COc1ccc(NC(=O)c2cccs2)c([N+](=O)[O-])c1` the Potency was inconclusive: 2.24 µM [activator, full curve, poor fit]. For `COc1cc(/C=N/NC(=O)c2cccc(S(=O)(=O)N3CCOCC3)c2)cc(OC)c1O`, the “activity change, negative = inhibition” value was inactive: -0.542% [at 46.1 µM]. For `CN(CC(=O)Nc1cccc(F)c1)C(=O)c1sccc1-c1ccccc1`, the “activity change, negative = inhibition” value was inactive: -19.2% [at 46.1 µM]. In the case of `CN(C)S(=O)(=O)c1cccc(-c2nn(-c3ccccc3)cc2/C=C2\SC(=S)NC2=O)c1`, the Potency is reported as active: 22.4 µM. For `Nc1ncnc2c1ncn2[C@@H]1CCCO1`, the Potency was inconclusive: 5.17 µM [inhibitor, single point]. For `O=C(CCC1CCCN(C(=O)c2ccoc2)C1)NCc1ccc(F)c(F)c1` (stereo not given), the Potency was inconclusive: 5.62 µM [activator, single point]. With `O=c1[nH]c(=O)n(-c2ccc(F)cc2)c(O)c1C=NCCN1CCCCC1` the Potency was inconclusive: 2.51 µM [inhibitor, partial curve, poor fit]. In the case of `NC(=O)c1ccccc1NC(=O)COc1ccc2c(c1)OCO2`, the Potency is reported as inconclusive: 10 µM [inhibitor, partial curve, poor fit]. For `Clc1ccc(-c2cn(-c3ccccc3)c3[n+]2CCS3)cc1`, the Potency was inconclusive: 5.01 µM [inhibitor, partial curve, poor fit]. In the case of `c1ccc(-c2csc(CN3CCCCC3)n2)cc1`, the Potency is reported as inconclusive: 0.562 µM [activator, partial curve, poor fit]. In the case of `Cn1ncc2c(Nc3ccc(Br)cc3)nc(Nc3ccc(Br)cc3)nc21`, the Potency is reported as inconclusive: 35.5 µM [inhibitor, single point]. In the case of `O=C(Nc1ccccc1N1CCOCC1)c1cc(Br)c(Br)s1`, the Potency is reported as inconclusive: 0.891 µM [inhibitor, single point]. For `CSc1ccc(CCNC(=O)CN2C(=O)CCSc3ccccc32)cc1`, the Potency was inconclusive: 7.94 µM [inhibitor, partial curve, poor fit]. In the case of `CCCN(CCC)CC(O)Cn1cc(/C=C/C(=O)c2ccc(OCC)cc2)c2ccccc21` (stereo not given), the Potency is reported as inconclusive: 3.16 µM [inhibitor, full curve, poor fit]. For `Cc1ccccc1C1NS(=O)(=O)N=C1N` (stereo not given), the Potency was inconclusive: 18.3 µM [activator, single point]. With `C(=N/n1c2ccccc2c2ccccc21)/c1ccco1` the “activity change, negative = inhibition” value was inactive: -22.8% [at 46.1 µM]. In the case of `N#CC1(c2ccccc2)CCC(=NO)CC1` (stereo not given), the Potency is reported as inconclusive: 31.6 µM [activator, single point]. For `N#Cc1ccc(OCC(=O)NC2=NCCS2)cc1`, the Potency was inconclusive: 35.5 µM [activator, single point]. With `COc1ccc(-c2noc(CCC(=O)NCc3ccc(OC)cc3OC)n2)cc1` the Potency was inconclusive: 12.6 µM [inhibitor, partial curve, poor fit]. In the case of `Cc1cccc(C)c1NC1=NCCCCS1`, the “activity change, negative = inhibition” value is reported as inactive: -6%. With `Cc1noc(C)c1C(=O)NCc1cccs1` the Potency was inconclusive: 0.251 µM [inhibitor, full curve, poor fit]. For `CCN(CC)CCOC(c1ccccc1)c1ccc(C)cc1` (stereo not given), the Potency was active: 8.91 µM. In the case of `Nn1c(-c2ccccc2Cl)nnc1-c1ccccc1Cl`, the “activity change, negative = inhibition” value is reported as inactive: -2.06%. For `O=C(c1cccc(F)c1)N1CCN(C(=O)c2cc(-c3ccc(Cl)cc3Cl)on2)CC1`, the Potency was “inactive”. With `O=C(N/N=C/c1cc2c(cc1Cl)OCO2)c1ccncc1` the Potency was inconclusive: 0.794 µM [activator, partial curve, poor fit]. In the case of `COc1ccc(Nc2nc(N)nc(CSc3nc4cc(OC)ccc4s3)n2)cc1`, the “activity change, negative = inhibition” value is reported as inactive: -22.3% [at 46.1 µM]. With `Cc1ccc(S(=O)(=O)CCC(=O)Nc2nnc(-c3cccs3)o2)cc1` the “activity change, negative = inhibition” value was inactive: 6.51%. For `COc1ccc(N2CCN(C(=O)CCS(=O)(=O)c3ccc(C)cc3)CC2)cc1`, the “activity change, negative = inhibition” value was inactive: -6.75%. With `Cc1onc(-c2ccc(Cl)cc2)c1-c1ccnc(SCC(=O)Nc2ccc(C(C)C)cc2)n1` the Potency was inconclusive: 12.6 µM [inhibitor, partial curve, poor fit]. For `Cc1cccc(C(=O)Nc2cccc(OCc3cc(=O)n4c(C)csc4n3)c2)c1`, the “activity change, negative = inhibition” value was inactive: -4.08% [at 46.1 µM]. In the case of `Cc1ccc(-c2csc3ncnc(N4CCN(S(=O)(=O)c5cccs5)CC4)c23)cc1`, the Potency is reported as inconclusive: 35.5 µM [inhibitor, single point]. In the case of `COc1ccc2c(c1OC)C(=O)OC2Nc1nc(-c2cccc([N+](=O)[O-])c2)cs1` (stereo not given), the “activity change, negative = inhibition” value is reported as inactive: 16%. With `COc1cccc2c1NC(C(=O)O)C1CC=CC21` (stereo not given) the Potency was “inactive”. With `COC(=O)c1ccc(Cl)c(NC(=O)C2CCN(S(=O)(=O)Cc3ccccc3)CC2)c1` the Potency was inconclusive: 5.62 µM [activator, single point]. For `CCOc1ccc(N2C(=O)C3C(c4ccc(OC)cc4OC)NC(CCSC)(C(=O)OC)C3C2=O)cc1` (stereo not given), the Potency was inconclusive: 2.82 µM [inhibitor, full curve, poor fit]. In the case of `O=c1[nH]c2ccc(S(=O)(=O)Nc3ccccc3O)cc2[nH]1`, the Potency is reported as inconclusive: 17.8 µM [activator, single point].

Reference: PubChem BioAssay AID540276 (National Center for Advancing Translational Sciences (NCATS), 2011)
% is scaled to controls: 0 for no effect and ±100 for the full control effect; potency is read from the fitted curve at half-maximal effect.
